PubChem BioAssay AID1259425 – University of Nebraska Medical Center – 2018
Test: 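Seek colon cancer weak points whose silencing resembles KSR1 loss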 (primary screen). System: HCT116 human colon cancer cells. Knock-down reagent: siRNA pool against human genes, 50 nM siRNA. Measured: 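mRNA of six signature genes measured together by branched-DNA assay after 50 nM siRNA pool, blank removed, divided by geometric mean of two housekeeping genes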. Scale: BNIP3L mRNA: higher = more BNIP3L transcript after knockdown.
Here is one part, drawn at random, of about 14,000 deposited reagents. Further read-outs or replicates are left out here. No sequences are given here. Not given: the time to read-out.

After knock-down of OR2C1, the screen gave BNIP3L mRNA, set 1 = 0.183. ZNF142 gave BNIP3L mRNA, set 1 = 0.316. NEDD8 gave BNIP3L mRNA, set 1 = 0.0896. IL23A showed BNIP3L mRNA, set 1 = 0.311.

Ordered by “BNIP3L mRNA, set 1” (descending): some entries from above.
ZNF142 | BNIP3L mRNA, set 1 = 0.316
NEDD8 | BNIP3L mRNA, set 1 = 0.0896

Additional results:
PRELID3B gave BNIP3L mRNA, set 1 = 0.142. Against WDR48 the deposit lists BNIP3L mRNA, set 1 = 0.085. Silencing of TSSK3 came out at: BNIP3L mRNA, set 1 = 0.0795. Against MRM3, the entry reads BNIP3L mRNA, set 1 = 0.0965. SDF2 showed BNIP3L mRNA, set 1 = 0.156. MRPS26 scored BNIP3L mRNA, set 1 = 0.0432.

Knock-down of FAN1 came out at: BNIP3L mRNA, set 1 = 0.22. Knock-down of SLC4A9 gave: BNIP3L mRNA, set 1 = 0.218.
